The test addresses c-Jun (human (endogenous in T47D)) (UniProt P05412). Briefly: co-IP; T47D cells lysed in IP lysis buffer with protease inhibitor cocktail, without SDS; precipitated with 1 ug c-Jun antibody (ab32137) or IgG at 4 °C overnight, Protein A agarose 2 h at 4 °C; western blot. In general terms: In western blotting, separated proteins are transferred to a membrane and probed.

The chains behind the UniProt entries cited, without tags or fusion partners. Where a name states a change or a piece, a line headed by the entry shows the natural chain unless it says otherwise.
UniProt P05412: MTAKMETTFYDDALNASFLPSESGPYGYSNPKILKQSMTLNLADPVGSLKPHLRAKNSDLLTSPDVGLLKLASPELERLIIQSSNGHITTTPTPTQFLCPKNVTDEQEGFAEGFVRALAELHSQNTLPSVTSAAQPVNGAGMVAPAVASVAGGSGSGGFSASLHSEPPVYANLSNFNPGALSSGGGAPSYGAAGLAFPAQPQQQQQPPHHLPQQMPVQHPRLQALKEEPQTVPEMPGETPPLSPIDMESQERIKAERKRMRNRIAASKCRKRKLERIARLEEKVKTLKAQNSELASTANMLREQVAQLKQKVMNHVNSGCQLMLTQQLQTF
UniProt Q92793: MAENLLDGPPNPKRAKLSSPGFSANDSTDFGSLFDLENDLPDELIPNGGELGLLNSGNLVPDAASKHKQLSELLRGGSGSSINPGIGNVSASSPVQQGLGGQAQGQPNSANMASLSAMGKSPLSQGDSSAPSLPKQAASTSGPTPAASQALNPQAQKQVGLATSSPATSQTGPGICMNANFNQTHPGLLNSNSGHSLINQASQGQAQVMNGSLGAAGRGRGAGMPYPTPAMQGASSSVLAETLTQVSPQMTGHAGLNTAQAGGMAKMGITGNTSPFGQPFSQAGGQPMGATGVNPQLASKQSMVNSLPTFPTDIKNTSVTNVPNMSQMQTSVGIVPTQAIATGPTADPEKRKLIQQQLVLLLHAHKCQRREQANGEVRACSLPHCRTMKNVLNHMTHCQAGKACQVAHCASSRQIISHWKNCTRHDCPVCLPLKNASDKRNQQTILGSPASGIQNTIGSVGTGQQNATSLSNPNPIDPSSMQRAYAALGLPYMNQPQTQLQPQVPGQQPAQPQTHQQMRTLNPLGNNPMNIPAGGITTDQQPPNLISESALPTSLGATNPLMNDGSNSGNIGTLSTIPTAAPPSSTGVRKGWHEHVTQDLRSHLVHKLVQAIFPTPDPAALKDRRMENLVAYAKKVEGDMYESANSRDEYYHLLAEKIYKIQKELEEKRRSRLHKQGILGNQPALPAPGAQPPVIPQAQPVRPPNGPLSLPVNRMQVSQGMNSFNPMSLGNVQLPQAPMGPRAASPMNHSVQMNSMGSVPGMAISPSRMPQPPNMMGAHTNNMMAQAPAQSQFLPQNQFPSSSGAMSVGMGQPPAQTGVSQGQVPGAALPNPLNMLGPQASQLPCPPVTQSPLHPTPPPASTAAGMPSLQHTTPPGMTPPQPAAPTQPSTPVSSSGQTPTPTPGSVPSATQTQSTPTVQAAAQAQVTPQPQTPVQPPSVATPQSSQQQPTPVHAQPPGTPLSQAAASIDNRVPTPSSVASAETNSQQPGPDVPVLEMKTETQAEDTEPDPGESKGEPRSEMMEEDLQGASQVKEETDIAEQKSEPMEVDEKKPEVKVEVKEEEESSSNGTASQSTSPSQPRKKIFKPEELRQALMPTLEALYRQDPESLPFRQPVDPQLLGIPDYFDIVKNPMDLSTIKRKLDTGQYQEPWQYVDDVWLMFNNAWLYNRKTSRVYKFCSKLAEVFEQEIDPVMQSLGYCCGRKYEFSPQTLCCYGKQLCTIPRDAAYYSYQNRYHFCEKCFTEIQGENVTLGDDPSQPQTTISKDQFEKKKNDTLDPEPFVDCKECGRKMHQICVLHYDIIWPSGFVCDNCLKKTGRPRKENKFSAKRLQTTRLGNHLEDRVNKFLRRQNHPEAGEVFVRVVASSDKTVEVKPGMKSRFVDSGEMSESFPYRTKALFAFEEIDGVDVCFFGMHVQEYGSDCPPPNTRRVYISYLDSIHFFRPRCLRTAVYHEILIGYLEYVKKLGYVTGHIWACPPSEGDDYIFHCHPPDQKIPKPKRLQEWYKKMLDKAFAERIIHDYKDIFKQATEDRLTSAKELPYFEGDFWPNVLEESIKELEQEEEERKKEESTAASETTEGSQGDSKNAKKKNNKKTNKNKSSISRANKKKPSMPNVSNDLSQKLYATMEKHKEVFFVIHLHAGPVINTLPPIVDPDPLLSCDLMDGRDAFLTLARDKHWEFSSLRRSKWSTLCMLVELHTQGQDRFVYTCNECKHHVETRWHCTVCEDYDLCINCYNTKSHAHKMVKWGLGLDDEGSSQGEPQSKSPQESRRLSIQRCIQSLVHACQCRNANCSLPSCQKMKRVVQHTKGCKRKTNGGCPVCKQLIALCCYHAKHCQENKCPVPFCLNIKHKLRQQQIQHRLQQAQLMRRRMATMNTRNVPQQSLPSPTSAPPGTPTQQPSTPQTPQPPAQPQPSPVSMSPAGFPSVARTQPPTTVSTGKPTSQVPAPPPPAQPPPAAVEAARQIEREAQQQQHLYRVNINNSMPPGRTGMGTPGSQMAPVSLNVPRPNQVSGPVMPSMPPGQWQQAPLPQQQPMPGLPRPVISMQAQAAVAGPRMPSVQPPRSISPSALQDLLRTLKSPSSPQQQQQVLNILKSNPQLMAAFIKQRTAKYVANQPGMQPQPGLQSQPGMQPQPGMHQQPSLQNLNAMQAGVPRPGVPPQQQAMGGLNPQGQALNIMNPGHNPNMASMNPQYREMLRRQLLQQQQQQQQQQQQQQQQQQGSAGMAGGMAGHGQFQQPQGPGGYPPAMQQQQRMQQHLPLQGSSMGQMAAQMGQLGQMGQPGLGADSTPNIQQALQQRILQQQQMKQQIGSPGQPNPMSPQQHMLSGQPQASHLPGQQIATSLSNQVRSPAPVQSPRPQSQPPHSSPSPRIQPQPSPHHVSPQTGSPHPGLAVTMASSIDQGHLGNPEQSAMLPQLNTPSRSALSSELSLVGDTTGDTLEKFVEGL

These are yes or no findings as the source states them, for the method shown. Binding seen in cells or lysates may run through a third protein. Some entries that bind do so weakly or less than the wild type.

As for CBP (from UniProt Q92793 1-2442), the binding entry is recorded as “binds”.

(Values after paper PMC10558541.)
